Test results taken from publication PMC4669652.
These are yes or no findings as the source states them, for the method shown. In cells and extracts the contact can be indirect. Binding calls can cover weak binding; strength is not graded here. Sequences can lack the tags named with a protein.

Chains of the proteins cited; added tags and fusions are not shown. Lines headed by an entry give the natural chain unless they say otherwise; changes in a name come on top.
UniProt Q12772: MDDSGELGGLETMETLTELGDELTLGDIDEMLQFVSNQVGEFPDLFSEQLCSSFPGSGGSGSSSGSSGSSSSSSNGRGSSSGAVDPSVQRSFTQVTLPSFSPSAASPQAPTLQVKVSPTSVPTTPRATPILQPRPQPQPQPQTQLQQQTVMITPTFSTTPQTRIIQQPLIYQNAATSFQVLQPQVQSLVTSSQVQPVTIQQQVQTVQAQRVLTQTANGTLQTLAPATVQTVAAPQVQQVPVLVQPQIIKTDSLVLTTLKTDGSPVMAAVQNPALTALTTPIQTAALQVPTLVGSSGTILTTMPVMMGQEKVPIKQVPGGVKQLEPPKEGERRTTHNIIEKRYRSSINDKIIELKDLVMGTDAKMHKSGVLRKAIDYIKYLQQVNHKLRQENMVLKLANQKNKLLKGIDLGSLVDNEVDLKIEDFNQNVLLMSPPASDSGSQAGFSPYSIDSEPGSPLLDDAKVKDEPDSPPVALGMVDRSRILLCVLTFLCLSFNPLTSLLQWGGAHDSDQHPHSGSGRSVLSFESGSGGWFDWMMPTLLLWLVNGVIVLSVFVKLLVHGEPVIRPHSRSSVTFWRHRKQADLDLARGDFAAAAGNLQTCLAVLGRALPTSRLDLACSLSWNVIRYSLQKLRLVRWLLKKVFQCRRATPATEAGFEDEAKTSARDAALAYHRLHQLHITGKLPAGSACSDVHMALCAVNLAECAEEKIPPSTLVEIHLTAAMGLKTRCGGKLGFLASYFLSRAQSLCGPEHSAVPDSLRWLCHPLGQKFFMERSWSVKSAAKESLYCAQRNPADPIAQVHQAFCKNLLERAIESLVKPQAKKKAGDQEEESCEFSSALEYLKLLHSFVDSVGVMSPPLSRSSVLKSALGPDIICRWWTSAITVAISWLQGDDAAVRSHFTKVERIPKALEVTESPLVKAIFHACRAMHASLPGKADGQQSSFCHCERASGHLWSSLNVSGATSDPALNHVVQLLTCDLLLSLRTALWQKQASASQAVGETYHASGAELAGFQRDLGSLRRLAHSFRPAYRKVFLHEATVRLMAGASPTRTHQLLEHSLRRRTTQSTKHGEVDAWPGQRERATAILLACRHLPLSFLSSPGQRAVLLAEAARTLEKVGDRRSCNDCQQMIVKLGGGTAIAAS

How the values were obtained:
[1] = target: T1, GST-SHP N-terminal domain (1-92 aa) (UniProt Q15466); experiment: pull-down; partially purified GST-fusion proteins incubated with the reciprocal protein synthesized by TNT; bound protein detected by immunoblot; only the target purified
T1 sequence: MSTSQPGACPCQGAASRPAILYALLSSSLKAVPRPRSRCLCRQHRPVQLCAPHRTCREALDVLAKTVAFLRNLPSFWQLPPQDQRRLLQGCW

GST-SHP full length = target: T2, GST-SHP full length (UniProt Q15466); experiment: as above
T2 sequence: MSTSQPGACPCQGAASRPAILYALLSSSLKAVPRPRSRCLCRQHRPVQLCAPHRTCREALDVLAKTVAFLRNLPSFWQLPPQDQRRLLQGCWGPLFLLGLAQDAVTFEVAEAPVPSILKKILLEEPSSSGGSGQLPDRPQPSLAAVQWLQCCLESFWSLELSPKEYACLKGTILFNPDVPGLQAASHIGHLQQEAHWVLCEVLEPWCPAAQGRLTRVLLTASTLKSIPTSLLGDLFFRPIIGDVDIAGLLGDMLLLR

Substance: SREBP-2 synthesized by TNT (from UniProt Q12772)
- binding [1]: binds
- binding (GST-SHP full length): binds
